PubChem BioAssay AID493014 (National Center for Advancing Translational Sciences (NCATS), 2011)
This is one part of the list. The main result of the screen is listed elsewhere. These columns were measured beside it and carry no call. Most of these compounds were active or inconclusive in the main read-out, so they are no random draw. The note in brackets gives the kind of curve behind each potency; many fits are weak.

Test: qHTS Assay to Find Inhibitors of Chronic Active B-Cell Receptor Signaling
Conditions: ABC-DLBCL IkBa-CBG/CBR reporter, luminescence ratio (green luciferase fused to IkBa over red control in TMD8 lymphoma cells), 4 h
Procedure, shortened: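 Cell line TMD8 (human ABC DLBCL), stably expressing tet-inducible CBG68-IkBa fusion and CBR; IMDM/0.5% FBS; cpd up to 46 uM; dox induction, 4 h, 37C/5% CO2; dual luminescence; green/red ratio; MG132 control.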

[1] = measured here: CBR red luminescence, cell number
[2] = measured here: IkBa-CBG green luminescence

Row | SMILES | AC50 [1] | AC50 [2]
1 | COc1ccccc1NC(=O)COC(=O)CNC(=O)c1ccc(OC)c(OC)c1 | 29.1 µM [rising, single point] | 
2 | COc1cc(OC)cc(C(=O)NCC(=O)NCCN2C(=O)S/C(=C\c3ccccc3Cl)C2=O)c1 | 29.1 µM [falling, single point] | 
3 | CCCc1nc(SCC(=O)Nc2cc(C)on2)c2ccccc2n1 | 10 µM [falling, partial curve] | 
4 | O=C(CNC(=O)c1cccs1)N/N=C/c1ccco1 | 35.5 µM [falling, single point] | 
5 | CC1=NN(c2nc(-c3ccc(Cl)cc3)cs2)C(=O)C1 | 17.8 µM [falling, single point] | 
6 | CC(=O)c1ccc(Sc2nnc(C)s2)c([N+](=O)[O-])c1 | 25.1 µM [falling, single point] | 
7 | CCOC(=O)N1CCN(C(=O)c2ccccc2N(C)S(C)(=O)=O)CC1 | 23.1 µM [falling, single point] | 
8 | CC(C)COC(=O)c1ccc2c(c1O)C(=O)c1ccccc1C2=O | 9.2 µM [rising, partial curve, poor fit] | 
9 | CNC(=S)N/N=C(\C)c1cccc([N+](=O)[O-])c1 | 18.4 µM [rising, partial curve, poor fit] | 23.1 µM [falling, partial curve, poor fit]
10 | CC(NS(=O)(=O)c1ccccc1)C(=O)NCc1ccco1 (stereo not drawn) | 6.51 µM [rising, single point] | 
11 | Cc1ccc(C(=O)Nc2ccc(O)c(C(=O)O)c2)o1 | 23.1 µM [falling, partial curve, poor fit] | 
12 | COc1ccc2nc(C)cc(Sc3nc4ccccc4s3)c2c1 | 12.6 µM [falling, partial curve] | 8.91 µM [falling, partial curve, poor fit]
13 | CCOc1ccc(S(=O)(=O)N(CC)CC(=O)NCc2cccnc2)cc1 | 2.24 µM [rising, partial curve, poor fit] | 
14 | CNc1ccc([N+](=O)[O-])cc1-c1nc2ccccc2[nH]c1=O | 3.98 µM [falling, partial curve, poor fit] | 
15 | Cc1cccc(C(=O)N[C@H](C(=O)Nc2nc3ccccc3[nH]2)C(C)C)c1 | 5.62 µM [rising, full curve, poor fit] | 7.08 µM [falling, partial curve]
16 | COc1ccccc1NC(=O)c1c(O)c2ccccc2[nH]c1=O | 0.0891 µM [falling, full curve, poor fit] | 
17 | CCOC(=O)c1ccc(NC(=O)c2cc(OC)c(OC)c(OC)c2Br)cc1 | 9.2 µM [rising, partial curve, poor fit] | 
18 | CCOc1ccc(CCNC(=O)CS(=O)(=O)Cc2nc(-c3cccc(OC)c3)oc2C)cc1 | 0.0891 µM [falling, full curve, poor fit] | 
19 | CCCn1nnc(NC(=O)c2cc3ccccc3o2)n1 | 13 µM [falling, partial curve] | 
20 | O=C(CCl)NCc1c(Cl)cccc1-n1cccc1 | 3.98 µM [falling, full curve, poor fit] | 

Row | SMILES | AC50 [1] | AC50 [2]
21 | CC(C)(C)c1ccc(OCc2ccc(C(=O)N3CCOCC3)o2)cc1 | 25.1 µM [falling, single point] | 
22 | O=C(CSc1ccccc1)Nc1ccc2c(c1)OCO2 | 1.58 µM [rising, partial curve, poor fit] | 
23 | COc1ccc(OC)c(C(=O)NC2CC(C)(C)Cc3c2cnn3-c2ccccc2)c1 (stereo not drawn) | 6.31 µM [falling, partial curve, poor fit] | 
24 | Cc1ccc(-n2cc(CN(C)Cc3ncc[nH]3)c(-c3cccc(C)c3)n2)cc1 | 35.5 µM [falling, single point] | 35.5 µM [rising, single point]
25 | COc1ccc(C(=O)Nc2ccc(S(=O)(=O)Nc3nccc(C)n3)cc2)cc1OC | 0.00411 µM [falling, full curve, poor fit] | 
26 | CC1CC(C)(C)CC2(C1)NC(=O)N(CC(=O)N1CCN(Cc3ccc(C#N)cc3)CC1)C2=O (stereo not drawn) | 5.8 µM [falling, single point] | 
27 | O=C(COC(=O)c1ccccc1F)c1ccc(-n2nncc2-c2ccco2)cc1 | 12.6 µM [rising, single point] | 
28 | CCCc1cc(-c2n[nH]c(=S)n2CC(C)C)cs1 | 0.326 µM [rising, full curve, poor fit] | 
29 | CC(C)(C)c1ccc(Oc2ccc(NC(=O)c3ccco3)cn2)cc1 | 3.16 µM [rising, single point] | 
30 | CCCC1=[N+](CC(=O)c2ccc(Br)cc2)CCn2cccc21 | 20 µM [rising, partial curve, poor fit] | 
31 | c1ccc(CSc2ccc(-c3cccs3)nn2)cc1 | 0.82 µM [rising, full curve, poor fit] | 
32 | Cc1cccc(C)c1OCC(=O)Nc1cccc(C(=O)O)c1 | 35.5 µM [falling, single point] | 
33 | COc1cc(SC)ccc1C(=O)Nc1nccs1 | 11.2 µM [falling, partial curve, poor fit] | 
34 | Cc1ccc(-c2nnc(SCCC(=O)N3CCOCC3)o2)cc1 | 10 µM [falling, partial curve] | 
35 | O=C(CCc1ccccc1)Nc1ccc2c(c1)C(=O)OC2 | 3.98 µM [rising, partial curve, poor fit] | 
36 | Fc1ccc(F)c(NC(=S)NCCc2ccccc2)c1 | 15.8 µM [falling, single point] | 
37 | COc1ccc(CCNC(=O)c2cnn3c(C(F)F)cc(C)nc23)cc1OC | 6.51 µM [rising, full curve, poor fit] | 
38 | Cc1ccc2nc(NC(=O)c3ccc(NS(=O)(=O)c4cccs4)cc3)sc2c1 | 5.8 µM [falling, partial curve] | 20.6 µM [rising, single point]
39 | CS(=O)(=O)NCCSCc1ccc(Cl)cc1 | 35.5 µM [falling, single point] | 25.1 µM [rising, partial curve, poor fit]
40 | COc1ccc2cc(S(=O)(=O)N3CCOCC3)ccc2c1 | 25.9 µM [rising, single point] | 

Row | SMILES | AC50 [1] | AC50 [2]
41 | COc1ccc(-n2ncc(N(C)n3cccc3)c(Cl)c2=O)cc1 | 20 µM [rising, single point] | 
42 | O=C(O)c1c(Cl)nc2ccccn12 | 2.82 µM [rising, full curve, poor fit] | 
43 | CC(C)OC(=O)CSc1nnc2c(n1)[nH]c1ccc(F)cc12 | 35.5 µM [falling, single point] | 
44 | COc1ccc(CCNC(=O)CSc2nc(-c3ccco3)cc(C(F)(F)F)n2)cc1OC | 0.517 µM [falling, partial curve, poor fit] | 
45 | O=S(=O)(c1cccc(S(=O)(=O)N2CCOCC2)c1)N1CCCCC1 | 29.1 µM [falling, single point] | 
46 | CCN1C(=NCCCCO)N[C@@H](c2cccc(C(F)(F)F)c2)C(C(=O)OC)=C1C | 10 µM [falling, partial curve] | 
47 | Cn1c(NC(=O)c2ccc(Cl)s2)cc(=O)n(C)c1=O |  | 29.1 µM [rising, partial curve, poor fit]
48 | COc1cccc(CN(Cc2ccccc2F)S(=O)(=O)c2ccc(S(=O)(=O)NCc3ccccc3)cc2)c1 | 16.4 µM [rising, single point] | 
49 | CCCCNc1nc2ccccc2n1CC(=O)Nc1ccc2c(c1)OCCO2 | 2.82 µM [rising, partial curve, poor fit] | 
50 | CC1=C(C(=O)OCc2ccccc2)C(c2cccc([N+](=O)[O-])c2)NC(=O)N1C (stereo not drawn) | 35.5 µM [falling, single point] | 
51 | CC(C)(C)c1[nH]nc2c1C(c1ccc(OC(=O)c3ccco3)cc1)C(C#N)=C(N)O2 (stereo not drawn) | 0.398 µM [falling, full curve] | 
52 | CCOC(=O)/C(C(=O)Nc1ccc(Br)cc1)=C1/NC(C)(C)Cc2ccccc21 | 11.6 µM [rising, partial curve, poor fit] | 
53 | CC(C)(CNC(=O)CO/N=C1/C=C2CCC3C(C(O)C[C@@]4(C)C3CC[C@]4(O)C(=O)CO)[C@@]2(C)CC1)C(O)C(=O)O (stereo partly drawn) | 7.08 µM [rising, full curve, poor fit] | 5.62 µM [falling, full curve]
54 | CCCC(=O)Nc1ncnc2c1ncn2[C@@H]1O[C@@H]2COP(=O)(O)O[C@H]2[C@H]1OC(=O)CCC | 20 µM [rising, partial curve, poor fit] | 23.1 µM [falling, partial curve, poor fit]
55 | Nc1ccc(C(=O)N2CCN(S(=O)(=O)/C=C/c3ccccc3)CC2)cc1[N+](=O)[O-] | 1.3 µM [falling, partial curve, poor fit] | 
56 | CCn1c(O)c(/C=C2\C=Nc3ccccc32)sc1=Nc1ccccc1 | 0.316 µM [rising, full curve, poor fit] | 
57 | O=C(COc1ccc(Cl)cc1)N1CCN(S(=O)(=O)c2ccccc2)CC1 | 6.51 µM [rising, single point] | 
58 | C[C@@]12C(=O)Nc3ccc(Br)cc3C(=O)N1[C@H]1c3cc(Cl)ccc3OC[C@@H]1[C@@H]2c1ccccc1 | 2.59 µM [falling, full curve] | 3.26 µM [rising, full curve, poor fit]
59 | OCCNc1nc(-c2ccccc2)nc2c1oc1ccccc12 | 7.08 µM [falling, full curve, poor fit] | 

Given tab-delimited: part of the list above
Row	SMILES	AC50 [1]	AC50 [2]
17	CCOC(=O)c1ccc(NC(=O)c2cc(OC)c(OC)c(OC)c2Br)cc1	9.2 µM [rising, partial curve, poor fit]	
18	CCOc1ccc(CCNC(=O)CS(=O)(=O)Cc2nc(-c3cccc(OC)c3)oc2C)cc1	0.0891 µM [falling, full curve, poor fit]	
19	CCCn1nnc(NC(=O)c2cc3ccccc3o2)n1	13 µM [falling, partial curve]	
20	O=C(CCl)NCc1c(Cl)cccc1-n1cccc1	3.98 µM [falling, full curve, poor fit]	
21	CC(C)(C)c1ccc(OCc2ccc(C(=O)N3CCOCC3)o2)cc1	25.1 µM [falling, single point]	
22	O=C(CSc1ccccc1)Nc1ccc2c(c1)OCO2	1.58 µM [rising, partial curve, poor fit]	
23	COc1ccc(OC)c(C(=O)NC2CC(C)(C)Cc3c2cnn3-c2ccccc2)c1 (stereo not drawn)	6.31 µM [falling, partial curve, poor fit]	
24	Cc1ccc(-n2cc(CN(C)Cc3ncc[nH]3)c(-c3cccc(C)c3)n2)cc1	35.5 µM [falling, single point]	35.5 µM [rising, single point]
25	COc1ccc(C(=O)Nc2ccc(S(=O)(=O)Nc3nccc(C)n3)cc2)cc1OC	0.00411 µM [falling, full curve, poor fit]	
26	CC1CC(C)(C)CC2(C1)NC(=O)N(CC(=O)N1CCN(Cc3ccc(C#N)cc3)CC1)C2=O (stereo not drawn)	5.8 µM [falling, single point]	
27	O=C(COC(=O)c1ccccc1F)c1ccc(-n2nncc2-c2ccco2)cc1	12.6 µM [rising, single point]	
